PubChem BioAssay AID504793 | Drosophila RNAi Screening Center | 2011
In all, the deposit lists about 23,000 reagents; below is an unselected part of those with a known target gene and a result. In the full data, 62 (0.27%) got an active call. 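Calls come from follow-up tests whose scores are not deposited, so confirmed genes may have low counts here; counts are not normalised per plate.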 Raw values vary from plate to plate and are shown uncorrected. Reagents against one gene are numbered here.

Assay: 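Genes required for cells to halt at G2/M after double-strand DNA breaks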 (primary screen)
System: Drosophila S2R+ cells
Reagent: long dsRNA against Drosophila genes, about 0.25 µg dsRNA per well
Timing: 4 days of dsRNA, then 4 hours of drug before read-out
Challenge: doxorubicin 0.5 µM for 4 hours to cause double-strand breaks, in cells also given a low, harmless dose of dsRNA against nbs to sensitise the assay
Measurement: 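Mitotic index as the number of phospho-histone H3-positive cells in each well following doxorubicin, given as raw counts without normalisation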
Scale: mitotic cells: higher = more cells in mitosis, weaker G2 arrest
Hit rule: 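Genes are called active only when high mitotic counts were reproduced with independent dsRNAs and mitosis was checked for delay without damage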
Calls: active = confirmed in follow-up tests; inactive = not confirmed

Against CG11741 the deposit lists mitotic cells, replicate 1 = 6; inactive. For CG5070 #1, the values are mitotic cells, replicate 1 = 5; inactive. Silencing of CG5070 #2 gave: mitotic cells, replicate 1 = 6; inactive. After knock-down of CG4041 #1, the screen gave mitotic cells, replicate 1 = 11; inactive. CG4041 #2 scored mitotic cells, replicate 1 = 4; inactive.

Entries listed so far whose gene name begins with C or c:
CG11741 — mitotic cells, replicate 1 = 6; activity call = inactive
CG5070 #1 — mitotic cells, replicate 1 = 5; activity call = inactive
CG5070 #2 — mitotic cells, replicate 1 = 6; activity call = inactive
CG4041 #1 — mitotic cells, replicate 1 = 11; activity call = inactive
CG4041 #2 — mitotic cells, replicate 1 = 4; activity call = inactive

Continued.
Depletion of AMPdeam #1 came out at: mitotic cells, replicate 1 = 6; inactive. AMPdeam #2 showed mitotic cells, replicate 1 = 6; inactive. Silencing of AMPdeam #3 resulted in: mitotic cells, replicate 1 = 7; inactive. CG14333 (retired record) #1 scored inactive. Knock-down of CG14333 (retired record) #2 came out at: mitotic cells, replicate 1 = 10; inactive. CG14333 (retired record) #3 showed mitotic cells, replicate 1 = 7; inactive.

Knock-down of CG14333 (retired record) #4 gave: mitotic cells, replicate 1 = 7; inactive. With knock-down of CG2150 the results were mitotic cells, replicate 1 = 3; inactive. beg scored mitotic cells, replicate 1 = 6; inactive.
